Data source: PubChem BioAssay AID1259306 (Sanger Institute, 2017)
Shown is a random part of 794 reagents tested. 11 of all reagents (1.4%) count as active. 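Calls reflect knock-down alone; synergy scores play no part, so knock-downs synergising with a drug can be called no change.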 Further read-outs or replicates are left out here. No sequences are given here. Not given: the amount of reagent, the time to read-out.

- Screen: 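Kinase-wide siRNA screen for partners of targeted drugs in colorectal cancer cells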 (primary screen)
- System: human SNU-C5 colorectal cancer cells
- Knock-down reagent: siRNA pool against human genes
- Conditions: DMSO vehicle alone, or one anchor drug: BYL719 at 1 µM, cetuximab at 5 µg/ml or trametinib at 10 nM, given 24 h into the assay
- Read-out: 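Viability versus non-targeting pool averaged across replicates, given as fraction and robust z-score, and synergy scores for BYL719, cetuximab or trametinib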
- Direction: robust z-score, knock-down alone: higher = more viable cells
- Active means: 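Called essential when the robust z-score for knock-down alone is below -3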
- Calls: active = essential (knock-down alone); inactive = no change alone

The opening 4 entries as a preview:
gene	robust z-score, knock-down alone	outcome
SBK1 (SH3 domain binding kinase 1)	0.925	inactive
ALPK1 (alpha kinase 1)	-0.264	inactive
ACVR1C (activin A receptor type 1C)	0.989	inactive
GRK1 (G protein-coupled receptor kinase 1)	0.989	inactive

Main list, from the first entry:
gene	robust z-score, knock-down alone	outcome
SBK1 (SH3 domain binding kinase 1)	0.925	inactive
ALPK1 (alpha kinase 1)	-0.264	inactive
ACVR1C (activin A receptor type 1C)	0.989	inactive
GRK1 (G protein-coupled receptor kinase 1)	0.989	inactive
ANKK1 (ankyrin repeat and kinase domain containing 1)	-0.212	inactive
PRKAR2A	-0.827	inactive
PACSIN1 (protein kinase C and casein kinase substrate in neurons 1)	0.318	inactive
CHKB (choline kinase beta)	0.023	inactive
DIS3 (DIS3 exosome endoribonuclease and 3'-5' exoribonuclease)	0.199	inactive
SIK3 (SIK family kinase 3)	0.415	inactive
EFNA4 (ephrin A4)	0.0652	inactive
SPHK1 (sphingosine kinase 1)	0.00802	inactive
TLK2 (tousled like kinase 2)	0.446	inactive
CDKN1A (cyclin dependent kinase inhibitor 1A)	0.989	inactive
ADCK2 (aarF domain containing kinase 2)	0.261	inactive
TNIK (TRAF2 and NCK interacting kinase)	-0.363	inactive
MAP3K10 (mitogen-activated protein kinase kinase kinase 10)	0.989	inactive
KALRN (kalirin RhoGEF kinase)	0.989	inactive
CSNK2A1 (casein kinase 2 alpha 1)	0.989	inactive
DGKK (diacylglycerol kinase kappa)	0.421	inactive
PRKCQ (protein kinase C theta)	0.0711	inactive
STK4 (serine/threonine kinase 4)	0.13	inactive
MAPK3 (mitogen-activated protein kinase 3)	0.989	inactive
FXR1 (FMR1 autosomal homolog 1)	0.266	inactive
PAK5 (p21 (RAC1) activated kinase 5)	0.989	inactive
CUL1 (cullin 1)	0.834	inactive
AK3 (adenylate kinase 3)	-0.0089	inactive
RPS6KA2 (ribosomal protein S6 kinase A2)	-1.89	inactive
STK3 (serine/threonine kinase 3)	0.989	inactive
ULK4 (unc-51 like kinase 4)	-0.548	inactive
PRKCSH (PRKCSH beta subunit of glucosidase II)	0.504	inactive
MATK (megakaryocyte-associated tyrosine kinase)	0.854	inactive
MAP2K1 (mitogen-activated protein kinase kinase 1)	0.361	inactive
DBF4 (DBF4-CDC7 kinase regulatory subunit)	0.775	inactive
ABL2 (ABL proto-oncogene 2, non-receptor tyrosine kinase)	0.989	inactive
ACVR2A (activin A receptor type 2A)	0.989	inactive
CKM (creatine kinase, M-type)	0.989	inactive
ULK1 (unc-51 like autophagy activating kinase 1)	0.134	inactive
RIPK1 (receptor interacting serine/threonine kinase 1)	-1.28	inactive
EFNB3 (ephrin B3)	-2.04	inactive
MAPK8 (mitogen-activated protein kinase 8)	0.989	inactive
DMPK (DM1 protein kinase)	0.989	inactive
MYO3A (myosin IIIA)	-0.664	inactive
PLK4 (polo like kinase 4)	-2.32	inactive
CKS1B (CDC28 protein kinase regulatory subunit 1B)	0.989	inactive
RPS6KA6 (ribosomal protein S6 kinase A6)	-0.0711	inactive
INSR (insulin receptor)	-0.164	inactive
PIK3CA	0.396	inactive
PAK6 (p21 (RAC1) activated kinase 6)	0.15	inactive
MAP3K2 (mitogen-activated protein kinase kinase kinase 2)	-0.217	inactive
